According to article PMC4928075:
No constants are given. Whether binding was seen depends on the method and setting. Binding seen in cells or lysates may run through a third protein. Binding calls can cover weak binding; strength is not graded here.

Biological target: Crumbs homolog 3 (CRB3) (rat (endogenous in adult rat testis and Sertoli cells))
Experiment: co-IP; about 800 ug adult rat testis lysate in IP lysis buffer (50 mM Tris pH 7.4, 0.15 M NaCl, 1% NP-40, 2 mM EGTA, 10% glycerol), pre-cleared with normal IgG; 2 ug precipitating antibody (against the partner proteins, Fig. 4A, or against CRB3, Fig. 4B) at room temperature overnight; Protein A/G PLUS agarose; immunoblot; normal rabbit or mouse IgG as negative control

B1: PALS1 (protein associated with Lin-7 1, also known as Mpp5) (protein, UniProt B4F7E7 1-675)
chain: MTTSYMNGHVTEESDSGIKNLGLASPEEHPKHREMAVDCPGDLGTRLMPVRRSAQLERIRQQQEDMRRRREEEGKKQELDLNSSMRLKKLAQIPPKTGIDNPIFDTEEGIVLESPHYAVKILEVEDLFSSLKHIQHTLVDSQSQEDISLLLQLVQNRDFQNAFKIHNAVTVHMNKASPPFPLIANVQDLVQEVQTVLKPVHQKEGQELTALLNAPHIQALLLAHDKVAEQEMQLEPITDERVYESIGHYGGETVKIVRIEKARDIPLGATVRNEMDSVIISRIVKGGAAEKSGLLHEGDEVLEINGIEIRGKDVNEVFDLLSDMHGTLTFVLIPSQQIKPPPAKETVIHVKAHFDYDPSDDPYVPCRELGLSFQKGDILHVISQEDPNWWQAYREGDEDNQPLAGLVPGKSFQQQREAMKQTIEEDKEPEKSGKLWCAKKNKKKRKKVLYNANKNDDYDNEEILTYEEMSLYHQPANRKRPIILIGPQNCGQNELRQRLMNKEKDRFASAVPHTTRNRRDHEVAGRDYHFVSRQAFEADIAAGKFIEHGEFEKNLYGTSIDSVRQVINSGKICLLSLRAQSLKTLRNSDLKPYIIFIAPPSQERLRALLAKEGKNPKPEELREIIEKTREMEQNNGHYFDTAIVNSDLDKAYQELLRLINKLDTEPQWVPSTWLR
binding: binds
